One molecule from doi:10.1101/2025.01.05.631328 (bioRxiv, 2025) can be followed below.

No constants are given. Whether binding was seen depends on the method and setting. In cells and extracts the contact can be indirect. Some entries that bind do so weakly or less than the wild type.

For this test, the target named is MISO isoform 2 (short isoform of human C3orf33) (human) (UniProt Q6P1S2). Put plainly: cross-linking.

B1: MISO isoform 2 (short isoform of human C3orf33) (protein, UniProt Q6P1S2 44-294)
chain: MAIAGIMLLLRSIRLTSKFTSSSDIPVEFIRRNVKLRGRLRRITENGLEIEHIPITLPIIASLRKEPRGALLVKLAGVELAETGKAWLQKELKPSQLLWFQLLGKENSALFCYLLVSKGGYFSVNLNEEILRRGLGKTVLVKGLKYDSKIYWTVHRNLLKAELTALKKGEGIWKEDSEKESYLEKFKDSWREIWKKDSFLKTTGSDFSLKKESYYEKLKRTYEIWKDNMNNCSLILKFRELISRINFRRKG
With B1, the binding result is “binds”.
